The list shows a part of the results.
Tests used:
Test in all cases: log2 fold change, soluble protein after heating vs DMSO (PISA); higher = thermal stabilisation; K562 cells, 10 uM, 30 min; active = over 0.2 and 3.5 SD of the protein, either way, in both replicates (recomputed)
[1] = compound: CC[C@H](C)[C@@H](C(=O)N[C@@H]([C@@H](C)O)C(=O)N[C@@H](CC(C)C)C(=O)[C@]1(CO1)C)NC(=O)[C@H]([C@@H](C)CC)N(C)C(=O)C [epoxomicin]
Outline: (§1)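 Soluble protein was defined as the supernatant after 21,000xg for 90 min. It came from K562 cells at 2×10^6 cells/mL given 10 μM compound for 30 min, heated in aliquots for 3 min across 48°C-58°C, pooled, and extracted in PBS with 0.5% NP-40 at 4°C, and was quantified by TMTpro 16plex LC-MS/MS with equalised channel sums. Thermal stability against control samples, from duplicates, is reported as log2 fold change.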

Chains of the proteins cited; added tags and fusions are not shown. Lines headed by an entry give the natural chain unless they say otherwise; changes in a name come on top.
UniProt Q8IVL6: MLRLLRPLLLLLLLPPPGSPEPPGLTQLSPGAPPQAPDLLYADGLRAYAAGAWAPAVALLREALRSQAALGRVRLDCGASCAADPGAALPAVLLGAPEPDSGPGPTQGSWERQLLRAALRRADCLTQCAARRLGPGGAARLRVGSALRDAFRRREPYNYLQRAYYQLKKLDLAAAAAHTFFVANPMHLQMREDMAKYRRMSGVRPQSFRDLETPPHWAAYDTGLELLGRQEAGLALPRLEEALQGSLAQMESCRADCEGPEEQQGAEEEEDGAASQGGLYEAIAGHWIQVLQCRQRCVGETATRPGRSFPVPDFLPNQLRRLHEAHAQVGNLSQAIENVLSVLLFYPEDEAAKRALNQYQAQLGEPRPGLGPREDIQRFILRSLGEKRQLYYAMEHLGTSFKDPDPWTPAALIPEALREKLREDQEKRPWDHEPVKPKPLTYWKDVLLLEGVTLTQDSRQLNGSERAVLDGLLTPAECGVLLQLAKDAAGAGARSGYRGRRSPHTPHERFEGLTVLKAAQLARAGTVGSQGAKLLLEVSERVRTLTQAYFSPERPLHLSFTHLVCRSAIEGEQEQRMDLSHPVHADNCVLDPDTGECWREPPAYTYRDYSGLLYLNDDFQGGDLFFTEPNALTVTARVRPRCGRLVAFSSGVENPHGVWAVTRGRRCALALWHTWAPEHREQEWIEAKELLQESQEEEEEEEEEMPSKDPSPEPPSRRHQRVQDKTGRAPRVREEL
UniProt Q9P0S3: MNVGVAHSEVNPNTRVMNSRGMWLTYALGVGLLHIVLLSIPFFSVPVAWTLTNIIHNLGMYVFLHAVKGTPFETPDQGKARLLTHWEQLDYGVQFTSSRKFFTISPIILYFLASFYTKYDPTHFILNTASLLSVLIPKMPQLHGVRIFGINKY
UniProt Q9BRQ3: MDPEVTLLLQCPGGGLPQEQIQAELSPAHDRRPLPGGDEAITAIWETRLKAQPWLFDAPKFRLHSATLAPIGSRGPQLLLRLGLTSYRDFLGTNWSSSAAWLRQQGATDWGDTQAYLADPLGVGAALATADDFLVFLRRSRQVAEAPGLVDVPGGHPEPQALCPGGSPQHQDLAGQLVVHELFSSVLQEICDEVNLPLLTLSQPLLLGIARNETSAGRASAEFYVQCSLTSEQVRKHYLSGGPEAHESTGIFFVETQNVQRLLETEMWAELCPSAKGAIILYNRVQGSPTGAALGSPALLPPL
UniProt Q8N138: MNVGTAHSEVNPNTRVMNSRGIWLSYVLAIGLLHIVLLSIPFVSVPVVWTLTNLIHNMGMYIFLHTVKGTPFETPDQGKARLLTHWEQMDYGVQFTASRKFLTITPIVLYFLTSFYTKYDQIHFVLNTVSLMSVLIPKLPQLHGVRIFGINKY
UniProt O15381: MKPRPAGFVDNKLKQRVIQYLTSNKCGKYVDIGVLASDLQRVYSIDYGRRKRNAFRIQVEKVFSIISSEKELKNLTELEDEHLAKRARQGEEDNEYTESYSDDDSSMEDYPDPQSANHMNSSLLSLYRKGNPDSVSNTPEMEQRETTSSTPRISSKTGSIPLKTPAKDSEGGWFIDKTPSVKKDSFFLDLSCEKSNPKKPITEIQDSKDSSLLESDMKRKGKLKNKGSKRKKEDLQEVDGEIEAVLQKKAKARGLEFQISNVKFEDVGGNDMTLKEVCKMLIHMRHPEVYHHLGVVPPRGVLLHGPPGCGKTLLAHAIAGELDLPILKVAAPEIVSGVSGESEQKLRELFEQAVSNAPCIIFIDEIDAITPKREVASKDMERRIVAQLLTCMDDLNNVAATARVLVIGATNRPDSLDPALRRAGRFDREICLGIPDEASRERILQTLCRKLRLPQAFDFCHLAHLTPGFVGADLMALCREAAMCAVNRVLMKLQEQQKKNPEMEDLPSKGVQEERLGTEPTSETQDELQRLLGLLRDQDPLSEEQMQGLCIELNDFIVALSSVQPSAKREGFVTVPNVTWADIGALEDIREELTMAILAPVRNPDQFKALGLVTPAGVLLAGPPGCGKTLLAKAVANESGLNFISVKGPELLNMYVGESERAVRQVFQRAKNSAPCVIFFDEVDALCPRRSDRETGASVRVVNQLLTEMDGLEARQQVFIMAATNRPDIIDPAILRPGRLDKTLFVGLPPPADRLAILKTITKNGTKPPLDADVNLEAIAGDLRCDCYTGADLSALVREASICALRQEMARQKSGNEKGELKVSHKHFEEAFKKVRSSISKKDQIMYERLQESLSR
UniProt Q969T7: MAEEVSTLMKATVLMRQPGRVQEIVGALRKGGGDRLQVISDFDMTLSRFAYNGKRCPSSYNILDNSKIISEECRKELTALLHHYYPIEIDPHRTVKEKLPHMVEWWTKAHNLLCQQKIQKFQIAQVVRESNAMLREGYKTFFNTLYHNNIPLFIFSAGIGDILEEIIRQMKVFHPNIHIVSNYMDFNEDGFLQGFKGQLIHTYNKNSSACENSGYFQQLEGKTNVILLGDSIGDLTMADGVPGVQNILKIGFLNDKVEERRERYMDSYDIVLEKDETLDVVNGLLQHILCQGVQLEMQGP
UniProt Q9H6K4: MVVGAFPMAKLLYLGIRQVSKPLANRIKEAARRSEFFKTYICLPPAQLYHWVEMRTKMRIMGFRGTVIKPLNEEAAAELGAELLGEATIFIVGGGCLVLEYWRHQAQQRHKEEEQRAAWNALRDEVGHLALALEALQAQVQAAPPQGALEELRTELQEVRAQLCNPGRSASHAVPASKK
UniProt Q6N063: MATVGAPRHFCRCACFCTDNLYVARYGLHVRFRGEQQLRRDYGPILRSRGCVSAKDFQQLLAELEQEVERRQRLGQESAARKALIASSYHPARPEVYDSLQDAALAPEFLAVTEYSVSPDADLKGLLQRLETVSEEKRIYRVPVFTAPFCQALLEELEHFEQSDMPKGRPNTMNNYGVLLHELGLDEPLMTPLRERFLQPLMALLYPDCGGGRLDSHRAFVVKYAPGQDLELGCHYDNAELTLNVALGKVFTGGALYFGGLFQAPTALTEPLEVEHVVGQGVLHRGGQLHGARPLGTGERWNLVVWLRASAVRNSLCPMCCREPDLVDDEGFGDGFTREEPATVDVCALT

[2] = compound: CC[C@@H]1C(=O)N(C)c2cnc(Nc3ccc(C(=O)NC4CCN(C)CC4)cc3OC)nc2N1C1CCCC1
Outline: as §1

[3] = compound: CCn1c(C(=O)N(C2CC2)C2CC2)cc2c3c(ncn3C)c(Nc3cc(C)n(C)n3)nc21
Outline: as §1

[4] = compound: CN(C)CC(=O)Nc1ccc2[nH]c(=O)c3ccccc3c2c1
Outline: as §1

[5] = compound: CN(CCOC1=CC=C(C=C1)C[C@H]2C(=O)NC(=O)S2)C3=CC=CC=N3 (racemic) [rosiglitazone]
Outline: as §1

[6] = compound: CN1C2=C(C3=C1C(=O)N(N=C3)CC4=CC(=CC=C4)N)SC(=C2)S(=O)C
Outline: as §1

[7] = compound: CC[C@@H]1C(=O)N(C)c2cnc(Nc3ccc(C(=O)N[C@H]4CC[C@H](N5CCN(CC6CC6)CC5)CC4)cc3OC)nc2N1C(C)C [volasertib]
Outline: as §1

[8] = compound: CCn1cc(-c2ccnc3[nH]c(-c4cccc(CN(C)C)c4)cc23)c(-c2ccc(NC(=O)N(C)C)cc2)n1
Outline: as §1

[9] = compound: CN1CCC(CNc2ccc3ncc(-c4cccc(OC(F)(F)F)c4)n3n2)CC1
Outline: as §1

[10] = compound: CC[C@H](C)N1C=C(C2=C(C=C(C=C21)C3=CN=C(C=C3)N4CCNCC4)C(=O)NCC5=C(C=C(NC5=O)C)C)C
Outline: as §1

Measured: log2 fold change

P3H3 (UniProt Q8IVL6)
inactive: [1] -0.164

ORMDL1 (UniProt Q9P0S3)
inactive: [2] -0.042 | [1] 0.245 | [3] 0.168

NUDT22 (UniProt Q9BRQ3)
inactive: [4] 0.08 | [5] 0.184 | [6] -0.05

ORMDL3 (UniProt Q8N138)
inactive: [7] -0.283 | [3] 0.024

NVL (UniProt O15381)
inactive: [8] -0.062 | [5] 0.099 | [9] 0.088

PABPC1 (UniProt E5RJM8)
inactive: [7] 0.168

NT5C3B (UniProt Q969T7)
inactive: [7] -0.161 | [10] -0.066 | [3] 0.002 | [8] -0.117 | [4] -0.101 | [5] -0.127 | [6] 0.064 | [9] 0.156

OPA3 isoform 2 (UniProt Q9H6K4)
inactive: [3] 0.01 | [4] 0.131 | [6] -0.225

Copied from the entries so far (2 entries):
P3H3 (UniProt Q8IVL6)
inactive: [1] -0.164

ORMDL1 (UniProt Q9P0S3)
inactive: [2] -0.042 | [1] 0.245 | [3] 0.168

The listing continues:

OGFOD2 (UniProt Q6N063)
inactive: [2] -0.007 | [10] -0.019 | [1] 0.08 | [4] 0.035 | [6] 0.147 | [9] -0.112
active: [8] -0.372
